Earlier results on one compound are cited in paper PMC12475274, “Harnessing indole scaffolds to identify small-molecule IRE1α inhibitors modulating XBP1 mRNA splicing” (Nature Communications, 2025).

As usually defined, the IC50 is the concentration needed to halve the response being measured.

For series [1], the system named is dephosphorylated IRE1α. As to conditions: read-out: binding affinity toward dephosphorylated IRE1α, IC50; competitive binding assay; ref Concha et al., 2015; cited from earlier work.
Series [2] has as its system phosphorylated IRE1α. As to conditions: read-out: binding affinity toward phosphorylated IRE1α, IC50; competitive binding assay; ref Concha et al., 2015; cited from earlier work.
For series [3], the target named is pIRE1α kinase. As to conditions: read-out: pIRE1α kinase enzymatic activity IC50; ref Concha et al., 2015; cited from earlier work.

Consider `CN[C@@H]1C[C@H]2O[C@@](C)([C@@H]1OC)n1c3ccccc3c3c4c(c5c6ccccc6n2c5c31)C(=O)NC4` [STS, staurosporine], for which the IC50 in series [1] was 50 nM; in series [2], 30 nM; in series [3], 3 nM.
